Source: the supplement of paper PMC10849652
The other results are listed elsewhere or left out. Residues, ends and D or L forms follow the SMILES beside them. *: point of attachment. Cbz = O=C(OCc1ccccc1)*

Amino acid sequences for entries named in this document (tags omitted). A change or cut given only in a name is not applied to a line headed by its entry.
UniProt Q9H5V8, whole entry, looked up: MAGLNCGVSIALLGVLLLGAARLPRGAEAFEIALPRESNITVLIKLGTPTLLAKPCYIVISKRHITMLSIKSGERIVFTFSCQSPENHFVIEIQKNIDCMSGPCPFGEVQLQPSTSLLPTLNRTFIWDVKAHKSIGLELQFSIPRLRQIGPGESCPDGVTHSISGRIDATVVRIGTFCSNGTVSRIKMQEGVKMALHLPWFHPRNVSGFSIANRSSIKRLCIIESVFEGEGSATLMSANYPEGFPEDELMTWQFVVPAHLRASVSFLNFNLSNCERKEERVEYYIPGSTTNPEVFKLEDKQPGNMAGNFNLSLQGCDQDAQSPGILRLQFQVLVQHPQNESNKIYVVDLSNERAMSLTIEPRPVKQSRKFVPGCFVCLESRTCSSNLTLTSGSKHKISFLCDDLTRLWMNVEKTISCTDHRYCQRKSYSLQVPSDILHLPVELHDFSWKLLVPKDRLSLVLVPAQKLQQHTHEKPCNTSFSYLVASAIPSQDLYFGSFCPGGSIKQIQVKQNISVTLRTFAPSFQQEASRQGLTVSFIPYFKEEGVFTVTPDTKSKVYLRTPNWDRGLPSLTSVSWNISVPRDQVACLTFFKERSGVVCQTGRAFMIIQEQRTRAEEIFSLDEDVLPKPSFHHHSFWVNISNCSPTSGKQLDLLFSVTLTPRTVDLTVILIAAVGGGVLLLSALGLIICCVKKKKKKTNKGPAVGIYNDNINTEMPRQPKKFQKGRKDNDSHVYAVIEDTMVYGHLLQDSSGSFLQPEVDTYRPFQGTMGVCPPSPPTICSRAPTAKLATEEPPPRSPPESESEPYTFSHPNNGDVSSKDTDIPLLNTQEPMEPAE
UniProt Q9Y259: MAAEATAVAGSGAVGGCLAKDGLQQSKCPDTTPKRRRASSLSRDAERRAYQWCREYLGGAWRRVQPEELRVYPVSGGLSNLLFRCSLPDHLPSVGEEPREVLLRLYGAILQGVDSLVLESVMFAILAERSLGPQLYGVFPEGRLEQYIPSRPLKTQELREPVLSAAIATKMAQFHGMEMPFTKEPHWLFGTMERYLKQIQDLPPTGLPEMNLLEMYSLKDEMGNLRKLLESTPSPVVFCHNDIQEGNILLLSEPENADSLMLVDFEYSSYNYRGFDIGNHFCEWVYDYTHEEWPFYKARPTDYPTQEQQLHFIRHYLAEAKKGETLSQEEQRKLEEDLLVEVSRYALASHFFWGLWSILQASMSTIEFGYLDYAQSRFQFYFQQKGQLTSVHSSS
UniProt Q9BU64: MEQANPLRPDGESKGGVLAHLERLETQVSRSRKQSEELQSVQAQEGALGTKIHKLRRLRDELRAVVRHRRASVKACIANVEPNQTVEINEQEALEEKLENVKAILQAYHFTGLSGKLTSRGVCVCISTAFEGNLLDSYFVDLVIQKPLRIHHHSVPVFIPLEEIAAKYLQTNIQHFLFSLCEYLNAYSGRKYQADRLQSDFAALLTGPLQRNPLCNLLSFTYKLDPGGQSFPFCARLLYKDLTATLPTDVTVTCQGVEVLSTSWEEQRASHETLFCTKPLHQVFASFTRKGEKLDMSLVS
UniProt O43633: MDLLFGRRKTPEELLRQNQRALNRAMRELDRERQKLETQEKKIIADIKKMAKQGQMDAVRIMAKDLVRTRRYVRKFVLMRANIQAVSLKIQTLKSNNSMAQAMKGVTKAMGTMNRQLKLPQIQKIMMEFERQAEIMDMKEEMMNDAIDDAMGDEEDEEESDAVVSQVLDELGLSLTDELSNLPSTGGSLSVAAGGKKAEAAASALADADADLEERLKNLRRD
UniProt Q5VV42: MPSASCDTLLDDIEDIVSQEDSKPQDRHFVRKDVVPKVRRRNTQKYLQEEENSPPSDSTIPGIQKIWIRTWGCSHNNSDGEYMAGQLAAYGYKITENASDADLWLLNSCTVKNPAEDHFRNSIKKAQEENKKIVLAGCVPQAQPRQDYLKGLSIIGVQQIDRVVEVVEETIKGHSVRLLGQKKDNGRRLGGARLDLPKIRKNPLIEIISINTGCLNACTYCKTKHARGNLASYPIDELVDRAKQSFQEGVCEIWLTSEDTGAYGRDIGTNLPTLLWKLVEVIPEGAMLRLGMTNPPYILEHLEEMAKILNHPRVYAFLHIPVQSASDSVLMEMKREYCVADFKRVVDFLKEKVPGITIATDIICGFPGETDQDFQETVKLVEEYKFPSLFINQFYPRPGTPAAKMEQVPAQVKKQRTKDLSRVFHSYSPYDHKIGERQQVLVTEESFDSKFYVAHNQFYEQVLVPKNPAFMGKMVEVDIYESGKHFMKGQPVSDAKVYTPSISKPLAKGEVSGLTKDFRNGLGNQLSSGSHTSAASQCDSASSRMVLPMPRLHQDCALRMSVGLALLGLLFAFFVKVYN
UniProt Q9Y6A4: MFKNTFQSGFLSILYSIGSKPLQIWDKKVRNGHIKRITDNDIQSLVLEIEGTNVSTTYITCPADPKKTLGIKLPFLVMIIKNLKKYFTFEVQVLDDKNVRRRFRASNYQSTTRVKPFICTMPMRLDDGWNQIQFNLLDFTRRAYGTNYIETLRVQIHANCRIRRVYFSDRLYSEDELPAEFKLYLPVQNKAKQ
UniProt Q8TD26: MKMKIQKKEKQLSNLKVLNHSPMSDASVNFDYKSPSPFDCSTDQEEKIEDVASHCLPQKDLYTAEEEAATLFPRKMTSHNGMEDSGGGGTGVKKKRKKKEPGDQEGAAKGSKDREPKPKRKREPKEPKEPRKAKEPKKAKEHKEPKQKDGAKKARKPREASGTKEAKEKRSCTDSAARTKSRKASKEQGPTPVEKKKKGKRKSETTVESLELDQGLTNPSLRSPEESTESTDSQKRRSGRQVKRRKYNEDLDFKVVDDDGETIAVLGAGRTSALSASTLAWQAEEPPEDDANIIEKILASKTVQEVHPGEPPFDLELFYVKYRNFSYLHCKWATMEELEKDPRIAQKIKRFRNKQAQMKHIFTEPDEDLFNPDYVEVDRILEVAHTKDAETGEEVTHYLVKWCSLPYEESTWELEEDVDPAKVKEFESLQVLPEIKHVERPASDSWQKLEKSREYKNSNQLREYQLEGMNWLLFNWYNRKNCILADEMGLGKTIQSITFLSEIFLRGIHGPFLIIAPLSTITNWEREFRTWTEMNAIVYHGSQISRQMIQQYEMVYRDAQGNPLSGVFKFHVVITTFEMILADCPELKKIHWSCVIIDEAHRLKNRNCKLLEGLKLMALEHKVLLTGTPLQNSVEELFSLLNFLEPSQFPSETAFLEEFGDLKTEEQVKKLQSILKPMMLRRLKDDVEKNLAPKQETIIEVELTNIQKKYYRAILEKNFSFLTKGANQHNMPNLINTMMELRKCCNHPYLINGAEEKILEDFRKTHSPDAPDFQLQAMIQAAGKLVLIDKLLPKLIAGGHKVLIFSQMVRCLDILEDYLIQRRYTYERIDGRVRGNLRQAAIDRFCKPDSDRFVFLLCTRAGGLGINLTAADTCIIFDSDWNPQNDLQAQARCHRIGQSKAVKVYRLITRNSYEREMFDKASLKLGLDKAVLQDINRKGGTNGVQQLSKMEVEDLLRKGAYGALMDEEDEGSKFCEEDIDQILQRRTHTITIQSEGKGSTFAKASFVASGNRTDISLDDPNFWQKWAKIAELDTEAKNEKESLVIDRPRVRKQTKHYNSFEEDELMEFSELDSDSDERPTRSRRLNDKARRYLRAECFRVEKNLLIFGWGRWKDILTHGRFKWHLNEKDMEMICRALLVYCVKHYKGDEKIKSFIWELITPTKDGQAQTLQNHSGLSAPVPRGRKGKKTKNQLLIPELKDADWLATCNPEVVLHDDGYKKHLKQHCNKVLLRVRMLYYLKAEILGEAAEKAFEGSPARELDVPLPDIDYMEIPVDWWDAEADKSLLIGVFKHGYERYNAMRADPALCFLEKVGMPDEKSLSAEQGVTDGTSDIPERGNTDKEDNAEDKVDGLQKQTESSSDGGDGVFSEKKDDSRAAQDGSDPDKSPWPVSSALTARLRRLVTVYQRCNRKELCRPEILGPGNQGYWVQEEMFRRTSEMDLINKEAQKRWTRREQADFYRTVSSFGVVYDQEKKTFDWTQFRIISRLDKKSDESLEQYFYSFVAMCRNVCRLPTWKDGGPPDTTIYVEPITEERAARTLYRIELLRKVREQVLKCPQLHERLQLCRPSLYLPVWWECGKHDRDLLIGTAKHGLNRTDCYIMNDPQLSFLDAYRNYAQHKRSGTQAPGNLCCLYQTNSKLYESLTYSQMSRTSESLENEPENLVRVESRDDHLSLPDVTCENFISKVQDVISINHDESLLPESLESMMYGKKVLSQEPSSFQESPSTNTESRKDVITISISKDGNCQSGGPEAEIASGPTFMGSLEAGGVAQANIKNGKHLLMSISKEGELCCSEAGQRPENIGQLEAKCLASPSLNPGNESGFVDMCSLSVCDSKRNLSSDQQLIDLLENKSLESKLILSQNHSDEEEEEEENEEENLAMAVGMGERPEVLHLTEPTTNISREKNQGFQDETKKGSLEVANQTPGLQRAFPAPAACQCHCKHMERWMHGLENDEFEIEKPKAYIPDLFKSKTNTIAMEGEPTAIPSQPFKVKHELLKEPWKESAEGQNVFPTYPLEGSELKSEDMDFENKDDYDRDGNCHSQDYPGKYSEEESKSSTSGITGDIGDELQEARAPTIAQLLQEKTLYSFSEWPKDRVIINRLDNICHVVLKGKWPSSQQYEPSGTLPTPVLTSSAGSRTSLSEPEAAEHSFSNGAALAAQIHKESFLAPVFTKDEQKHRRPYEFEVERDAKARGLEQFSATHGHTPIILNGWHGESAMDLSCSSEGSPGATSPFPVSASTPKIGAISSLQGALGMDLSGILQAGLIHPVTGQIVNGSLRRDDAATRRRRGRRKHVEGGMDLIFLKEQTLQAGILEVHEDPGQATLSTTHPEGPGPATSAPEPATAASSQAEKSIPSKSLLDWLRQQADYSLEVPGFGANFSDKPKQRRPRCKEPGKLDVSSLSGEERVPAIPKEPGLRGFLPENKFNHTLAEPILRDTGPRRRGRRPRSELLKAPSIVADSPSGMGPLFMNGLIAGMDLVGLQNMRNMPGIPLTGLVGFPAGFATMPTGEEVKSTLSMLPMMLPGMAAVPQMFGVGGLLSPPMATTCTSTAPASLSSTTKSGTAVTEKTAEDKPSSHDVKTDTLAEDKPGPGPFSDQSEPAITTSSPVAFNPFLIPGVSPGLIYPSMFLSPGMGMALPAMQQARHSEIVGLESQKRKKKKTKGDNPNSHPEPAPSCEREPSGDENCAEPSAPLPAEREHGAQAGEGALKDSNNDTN
UniProt Q9BRQ6: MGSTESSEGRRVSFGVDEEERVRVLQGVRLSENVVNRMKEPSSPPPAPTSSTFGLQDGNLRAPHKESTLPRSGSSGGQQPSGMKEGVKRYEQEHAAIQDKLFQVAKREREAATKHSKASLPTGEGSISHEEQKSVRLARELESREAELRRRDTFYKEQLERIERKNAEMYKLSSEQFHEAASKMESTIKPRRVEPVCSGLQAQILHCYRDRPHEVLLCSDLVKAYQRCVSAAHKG
UniProt Q92879: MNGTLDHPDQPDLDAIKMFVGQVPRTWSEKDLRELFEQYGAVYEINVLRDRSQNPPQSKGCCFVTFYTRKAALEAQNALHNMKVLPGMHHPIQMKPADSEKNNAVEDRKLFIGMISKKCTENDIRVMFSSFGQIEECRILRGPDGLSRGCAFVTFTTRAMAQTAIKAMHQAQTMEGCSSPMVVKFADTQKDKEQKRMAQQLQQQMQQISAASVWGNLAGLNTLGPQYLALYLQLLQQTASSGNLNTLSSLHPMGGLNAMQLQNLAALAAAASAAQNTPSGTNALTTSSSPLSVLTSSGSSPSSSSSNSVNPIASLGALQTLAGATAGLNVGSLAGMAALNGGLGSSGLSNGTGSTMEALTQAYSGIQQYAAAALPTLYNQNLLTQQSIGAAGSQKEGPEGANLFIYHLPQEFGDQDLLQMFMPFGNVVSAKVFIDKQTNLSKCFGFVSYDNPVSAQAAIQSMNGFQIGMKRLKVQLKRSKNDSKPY
UniProt O95674: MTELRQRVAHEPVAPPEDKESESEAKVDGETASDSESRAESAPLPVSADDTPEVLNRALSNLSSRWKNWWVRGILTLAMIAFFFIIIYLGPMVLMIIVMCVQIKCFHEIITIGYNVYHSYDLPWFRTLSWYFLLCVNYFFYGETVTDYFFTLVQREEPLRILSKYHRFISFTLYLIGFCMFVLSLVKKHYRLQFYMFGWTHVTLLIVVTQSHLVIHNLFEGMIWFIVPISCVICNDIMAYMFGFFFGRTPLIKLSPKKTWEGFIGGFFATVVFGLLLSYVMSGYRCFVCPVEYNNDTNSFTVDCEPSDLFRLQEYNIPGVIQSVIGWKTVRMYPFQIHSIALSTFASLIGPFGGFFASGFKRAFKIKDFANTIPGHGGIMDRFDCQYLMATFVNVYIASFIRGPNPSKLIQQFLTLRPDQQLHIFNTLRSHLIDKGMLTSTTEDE

Columns and labels:
Assay in all cases: log2 fold change, soluble protein after heating vs DMSO (PISA); higher = thermal stabilisation; K562 cells, 10 uM, 30 min; active = over 0.2 and 3.5 SD of the protein, either way, in both replicates (recomputed)
erlotinib = compound: C#Cc1cccc(Nc2ncnc3cc(OCCOC)c(OCCOC)cc23)c1 [erlotinib]
Method in brief: (§1)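 K562 cells at 2×10^6 cells/mL were exposed to 10 μM compound for 30 min, then aliquots were heated for 3 min across 48°C-58°C, pooled, and extracted in PBS containing 0.5% NP-40 at 4°C. The supernatant after 21,000xg for 90 min was taken as soluble protein and measured by TMTpro 16plex LC-MS/MS with channel sums equalised. Thermal stability is reported relative to control samples, with values from duplicates. Fold changes are given on a log2 scale.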

[1] = compound: C/C(=N\NC(=O)C1=CC(=CC=C1)S(=O)(=O)N2CCOCC2)/C3=C(C=CC(=C3)Cl)O
Method in brief: as §1

[2] = compound: C1=CC(=C(C=C1Cl)C2=NC3=NC=CN=C3C(=N2)NC4=CC=NC=C4)F
Method in brief: as §1

[3] = compound: C1=CC(=CC=C1C2=NC3=C(N2)C=C(C=C3)C(=O)N)OC4=CC=C(C=C4)Cl
Method in brief: as §1

[4] = compound: C1=CC2=C(C=CC(=C2)/C=C\3/C(=O)NC(=NCC4=CC=CS4)S3)N=C1
Method in brief: as §1

[5] = compound: C1=CC2=NC=CN=C2C=C1/C=C/3\C(=O)NC(=O)S3
Method in brief: as §1

[6] = compound: C1=CC=C(C=C1)C2=NC(=C(N2)C3=CC=NC=C3)C4=CC(=C(C=C4)Cl)O
Method in brief: as §1

[7] = compound: C1=CC=C2C(=C1)C3=NNC4=CC=CC(=C43)C2=O
Method in brief: as §1

[8] = compound: C1CCN(C1)C(=O)NC2=CC=CC(=C2)NC3=NC=C(C(=N3)NCCC4=CN=CN4)Br
Method in brief: as §1

[9] = compound: C1CN(CCC1(CC2=CC=C(C=C2)Cl)N)C3=NC=NC4=C3C=CN4
Method in brief: as §1

IRAK-1-4 Inhibitor I = compound: C1COCCN1CCN2C3=CC=CC=C3N=C2NC(=O)C4=CC(=CC=C4)[N+](=O)[O-] [IRAK-1-4 Inhibitor I]
Method in brief: as §1

ibrutinib = compound: C=CC(=O)N1CCC[C@@H](n2nc(-c3ccc(Oc4ccccc4)cc3)c3c(N)ncnc32)C1 [ibrutinib]
Method in brief: as §1

[10] = compound: CC(=O)c1cnc2ccc(-c3cc(Cl)c(O)c(Cl)c3)nc2c1N[C@H]1CC[C@H](CN(C)C)CC1
Method in brief: as §1

ralimetinib = compound: CC(C)(C)Cn1c(N)nc2ccc(-c3[nH]c(C(C)(C)C)nc3-c3ccc(F)cc3)nc21 [ralimetinib]
Method in brief: as §1

[11] = compound: CC(C)(O)CC(=O)NCCn1ccc2ncnc(Nc3ccc(Oc4cccc(C(F)(F)F)c4)c(Cl)c3)c21
Method in brief: as §1

[12] = compound: CC(C)C1=C2N=C(C=C(N2N=C1)NCC3=CC=CC=C3)NCCCCCCN
Method in brief: as §1

[13] = compound: CC(C)C[C@@H](C=O)NC(=O)[C@H](CC(C)C)NC(=O)[C@H](CC(C)C)NC(=O)OCc1ccccc1
Method in brief: as §1

pinometostat = compound: CC(C)N(C[C@H]1O[C@@H](n2cnc3c(N)ncnc32)[C@H](O)[C@@H]1O)[C@H]1C[C@@H](CCc2nc3cc(C(C)(C)C)ccc3[nH]2)C1 [pinometostat]
Method in brief: as §1

[14] = compound: CC1=C(C(CC(=O)N1)C2=CC=C(C=C2)C(F)(F)F)C(=O)NC3=C(C=C4C(=C3)C=NN4)F
Method in brief: as §1

[15] = compound: CC1=C(C2=C(C=C1)C(=O)C3=CC=CC=C3N2CCCN)C
Method in brief: as §1

Measured: log2 fold change

CDCP1 (UniProt Q9H5V8)
inactive: erlotinib 0.045 | [1] -0.011 | [2] 0.002 | [3] 0.031 | [4] 0 | [5] 0.002 | [6] -0.035 | [7] -0.076 | [8] -0.042 | [9] 0.106 | IRAK-1-4 Inhibitor I 0.021 | ibrutinib -0.014 | [10] -0.024 | ralimetinib -0.022 | [11] 0.008 | [12] 0.219 | [13] 0.031 | pinometostat -0.031 | [14] 0.025 | [15] 0.028

CENPH (UniProt Q9H3R5)
inactive: erlotinib 0.075 | [1] 0.022 | [2] -0.126 | [3] 0.036 | [4] 0.068 | [5] 0.08 | [6] -0.068 | [7] 0.009 | [8] 0.013 | [9] -0.126 | IRAK-1-4 Inhibitor I -0.107 | ibrutinib -0.116 | [10] 0.016 | ralimetinib 0.022 | [11] -0.072 | [12] -0.08 | [13] 0.102 | pinometostat 0.147 | [14] -0.101 | [15] -0.047

CHKB (UniProt Q9Y259)
inactive: erlotinib 0 | [1] 0.109 | [2] 0.144 | [3] 0.002 | [4] 0.041 | [5] 0.009 | [6] -0.034 | [7] -0.044 | [8] -0.122 | [9] 0.07 | IRAK-1-4 Inhibitor I 0.015 | ibrutinib 0.173 | [10] 0.021 | ralimetinib 0.081 | [11] -0.215 | [12] 0.02 | [13] 0.015 | pinometostat -0.002 | [14] 0.066 | [15] 0.049

Random excerpt: 2 entries already listed
CHKB (UniProt Q9Y259)
inactive: erlotinib 0 | [1] 0.109 | [2] 0.144 | [3] 0.002 | [4] 0.041 | [5] 0.009 | [6] -0.034 | [7] -0.044 | [8] -0.122 | [9] 0.07 | IRAK-1-4 Inhibitor I 0.015 | ibrutinib 0.173 | [10] 0.021 | ralimetinib 0.081 | [11] -0.215 | [12] 0.02 | [13] 0.015 | pinometostat -0.002 | [14] 0.066 | [15] 0.049

CENPH (UniProt Q9H3R5)
inactive: erlotinib 0.075 | [1] 0.022 | [2] -0.126 | [3] 0.036 | [4] 0.068 | [5] 0.08 | [6] -0.068 | [7] 0.009 | [8] 0.013 | [9] -0.126 | IRAK-1-4 Inhibitor I -0.107 | ibrutinib -0.116 | [10] 0.016 | ralimetinib 0.022 | [11] -0.072 | [12] -0.08 | [13] 0.102 | pinometostat 0.147 | [14] -0.101 | [15] -0.047

(listing goes on)

CENPO (UniProt Q9BU64)
inactive: erlotinib -0.048 | [1] -0.07 | [2] 0.139 | [3] 0.104 | [4] -0.089 | [5] -0.098 | [6] 0.055 | [7] -0.04 | [8] -0.025 | [9] 0.303 | IRAK-1-4 Inhibitor I -0.029 | ibrutinib 0.079 | [10] 0.041 | ralimetinib -0.044 | [11] -0.104 | [12] 0.131 | [13] -0.162 | pinometostat 0.077 | [14] 0.111 | [15] 0.382

CHMP2A (UniProt O43633)
inactive: erlotinib 0.008 | [1] 0.03 | [2] 0.035 | [3] 0.009 | [4] -0.011 | [5] 0.016 | [6] -0.05 | [7] 0.006 | [8] -0.028 | [9] 0.025 | IRAK-1-4 Inhibitor I 0.041 | ibrutinib -0.006 | [10] -0.003 | ralimetinib -0.093 | [11] -0.041 | [12] -0.024 | [13] -0.02 | pinometostat -0.03 | [14] -0.004 | [15] 0.036

CENPF (UniProt P49454)
inactive: erlotinib -0.058 | [1] -0.019 | [2] -0.107 | [3] 0.018 | [4] -0.089 | [5] 0.035 | [6] -0.061 | [7] -0.048 | [8] -0.083 | [9] -0.035 | IRAK-1-4 Inhibitor I -0.042 | ibrutinib 0.007 | [10] 0.013 | ralimetinib 0.1 | [11] 0.101 | [12] 0.024 | [13] 0.133 | pinometostat 0.055 | [14] -0.011 | [15] 0

CHCHD3 (UniProt Q9NX63)
inactive: erlotinib 0.004 | [1] -0.016 | [2] 0.046 | [3] -0.002 | [4] 0.016 | [5] 0.018 | [6] -0.006 | [7] -0.064 | [8] 0.007 | [9] 0.006 | IRAK-1-4 Inhibitor I 0.013 | ibrutinib -0.014 | [10] 0.003 | ralimetinib -0.032 | [11] 0.032 | [12] 0.005 | [13] -0.01 | pinometostat -0.076 | [14] 0.028 | [15] 0.011

CHMP1B (UniProt Q7LBR1)
inactive: erlotinib -0.027 | [1] 0.014 | [2] -0.017 | [3] 0.052 | [4] 0.016 | [5] 0.019 | [6] 0.077 | [7] 0.014 | [8] 0.008 | [9] 0.009 | IRAK-1-4 Inhibitor I 0.052 | ibrutinib -0.001 | [10] -0.035 | ralimetinib -0.077 | [11] 0.026 | [12] -0.127 | [13] 0.034 | pinometostat 0.024 | [14] 0.165 | [15] -0.002

CDKAL1 (UniProt Q5VV42)
inactive: erlotinib 0.117 | [1] -0.227 | [2] -0.06 | [3] 0.077 | [4] 0.093 | [5] 0.031 | [6] 0.004 | [7] 0.054 | [8] 0.013 | [9] -0.029 | IRAK-1-4 Inhibitor I -0.127 | ibrutinib -0.021 | [10] 0.017 | ralimetinib 0.021 | [11] -0.061 | [12] -0.076 | [13] 0.06 | pinometostat 0.061 | [14] 0.003 | [15] 0.096

CFH (UniProt P08603)
inactive: erlotinib -0.08 | [1] -0.081 | [2] 0 | [3] 0.236 | [4] 0.044 | [5] 0.056 | [6] -0.017 | [7] -0.035 | [8] -0.02 | [9] 0.084 | IRAK-1-4 Inhibitor I 0 | ibrutinib 0.038 | [10] -0.052 | ralimetinib 0.029 | [11] 0.198 | [12] 0.09 | [13] 0.059 | pinometostat 0.021 | [14] -0.064 | [15] -0.082

CFAP20 (UniProt Q9Y6A4)
inactive: erlotinib -0.003 | [1] -0.164 | [2] -0.145 | [3] 0.069 | [4] 0.001 | [5] 0.031 | [6] 0.005 | [7] -0.013 | [8] -0.012 | [9] -0.127 | IRAK-1-4 Inhibitor I -0.085 | ibrutinib 0.002 | [10] -0.011 | ralimetinib 0.039 | [11] 0.05 | [12] -0.055 | [13] 0.091 | pinometostat 0.208 | [14] -0.025 | [15] -0.171

CHD6 (UniProt Q8TD26)
inactive: erlotinib -0.208 | [1] -0.225 | [2] 0.102 | [3] -0.024 | [4] -0.138 | [5] -0.035 | [6] 0.002 | [7] -0.769 | [8] 0.155 | [9] 0.199 | IRAK-1-4 Inhibitor I -0.008 | ibrutinib 0.095 | [10] 0.308 | ralimetinib -0.046 | [11] 0.446 | [12] 0.253 | [13] 0.006 | pinometostat 0.101 | [14] -0.409 | [15] -0.305

CHCHD6 (UniProt Q9BRQ6)
inactive: erlotinib 0.146 | [1] 0.129 | [2] 0.142 | [3] 0 | [4] 0.278 | [5] -0.123 | [6] 0.129 | [7] -0.127 | [8] 0.089 | [9] 0.094 | IRAK-1-4 Inhibitor I 0.008 | ibrutinib 0.2 | [10] -0.059 | ralimetinib -0.27 | [11] 0.001 | [12] 0.003 | [13] 0.002 | pinometostat 0.008 | [14] 0.062 | [15] -0.08

CERS5 (UniProt Q8N5B7)
inactive: erlotinib 0.022 | [1] 0.012 | [2] 0.014 | [3] 0.005 | [4] 0.095 | [5] 0.105 | [6] -0.006 | [7] -0.156 | [8] 0 | [9] -0.087 | IRAK-1-4 Inhibitor I 0.039 | ibrutinib 0.011 | [10] -0.004 | ralimetinib 0.023 | [11] -0.089 | [12] -0.075 | [13] 0.051 | pinometostat -0.033 | [14] -0.006 | [15] 0.058

CELF1 isoform 4 (UniProt Q92879)
inactive: erlotinib 0.11 | [1] 0.151 | [2] -0.046 | [3] -0.018 | [4] 0.098 | [5] -0.029 | [6] 0.015 | [7] 0.011 | [8] 0.007 | [9] 0.009 | IRAK-1-4 Inhibitor I -0.086 | ibrutinib -0.013 | [10] -0.141 | ralimetinib 0.051 | [11] -0.092 | [12] -0.283 | [13] -0.016 | pinometostat 0.063 | [14] -0.035 | [15] 0.29

CDS2 (UniProt O95674)
inactive: erlotinib -0.012 | [1] -0.086 | [2] -0.028 | [3] 0.029 | [4] 0.106 | [5] 0.059 | [6] -0.059 | [7] 0.024 | [8] -0.026 | [9] 0.009 | IRAK-1-4 Inhibitor I -0.008 | ibrutinib 0.049 | [10] -0.005 | ralimetinib -0.014 | [11] -0.003 | [12] 0.015 | [13] 0.061 | pinometostat 0.037 | [14] 0.028 | [15] 0.021
